Results of single-concentration screens

Chains of the proteins cited; added tags and fusions are not shown.
UniProt P9WPC5, whole entry: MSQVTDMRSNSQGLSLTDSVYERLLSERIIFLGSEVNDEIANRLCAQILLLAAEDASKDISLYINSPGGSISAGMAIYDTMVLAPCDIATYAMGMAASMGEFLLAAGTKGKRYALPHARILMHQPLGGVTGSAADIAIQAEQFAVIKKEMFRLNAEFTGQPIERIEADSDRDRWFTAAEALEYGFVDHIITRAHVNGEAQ
UniProt P9WPC3, whole entry partner: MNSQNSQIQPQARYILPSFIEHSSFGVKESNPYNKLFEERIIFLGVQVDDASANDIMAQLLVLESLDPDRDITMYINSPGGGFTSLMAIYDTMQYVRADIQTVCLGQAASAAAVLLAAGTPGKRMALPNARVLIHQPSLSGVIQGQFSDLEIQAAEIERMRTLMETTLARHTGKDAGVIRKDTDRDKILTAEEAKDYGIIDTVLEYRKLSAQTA

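ClpP1P2, Mycobacterium tuberculosis (UniProt P9WPC5 and UniProt P9WPC3). Protease assay of ClpP1P2, read by the AMC dye that it sets free. Compounds at 50 µM. Higher reads as stronger inhibition, judged from the few compounds that gave an IC50. Most other retested compounds had strongly negative values. Of about 69,000 compounds tested this way, about 10 (0.015%) reached 50% or more in at least one test.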

Results are given as percent effect.
The record does not define 0% and 100%; most values in the screen are far below 50% and negative numbers occur (in some assays of this library far below -100).
The compounds are a random part of those screened.

With COc1cccc(CC(=O)N2CCN(c3cccc(C)c3)C(C)C2)c1 (configuration not stated) the screen gave -13.92%.
With Cn1nc2c(cc1=O)CN(Cc1nc(C3CC3)no1)CC2 the screen gave -7.216%.
With CC(C)(O)CN1CCN(C(=O)c2cccn2Cc2ccncc2)CC1 the screen gave 0.6714%.
With Fc1ccc(CN2C[C@@H](OCc3ccccn3)[C@H]3COC[C@H]32)cc1 the screen gave -8.702%.
With CC(C)Cc1noc(CN2CCN(CCOc3ccc(Cl)cc3)CC2)n1 the screen gave 14.09%.
With CCc1cn[nH]c1C1CCN(c2cc(C)c3cc(OC)ccc3n2)CC1 the screen gave -9.335%.
With Cc1csc2c(=O)n3c(nc12)CCN(C(=O)c1ccccn1)CC3 the screen gave -15.49%.
With CC(=O)N(C)c1nc(CN2CCCC2c2cnn(C)c2)cs1 (configuration not stated) the screen gave -12.52%.
With Cc1nn(CC(=O)N2CCN(c3ccc(F)cc3)CC2)c(C)c1Cl the screen gave -10.67%.
With COc1ccc(CCC(=O)N2CCCC2Cn2cc(C)cn2)cc1F (configuration not stated) the screen gave 1.087%.
With COCCNC(=O)c1cccnc1Sc1cc(OC)ccc1OC the screen gave 5.564%.
With Cc1csc2nc3n(c(=O)c12)CCN(Cc1c[nH]cn1)CC3 the screen gave -5.182%.
With Cc1nnc(NC(=O)CN2CCCC2c2c(C)nn(C)c2C)s1 (configuration not stated) the screen gave -32.13%.
With O=S(=O)(NCC1(O)CCOCC1)c1c(F)cccc1F the screen gave -0.2416%.
With COc1ccc(CC(=O)N2CCCCC2Cn2cccn2)cc1OC (configuration not stated) the screen gave 3.01%.
With Cc1ccc(OCCN2CCC(c3nc(C)n4c(C)csc34)CC2)cc1 the screen gave -14.63%.
With Cc1noc(C2CCN(C(=O)CCc3ccccn3)CC2)n1 the screen gave -31.84%.
With CCOc1ccc(Cl)c(C(=O)N2CCCSCC2)n1 the screen gave -3.357%.
With CCc1nnc(SCc2nonc2C)n1C1CC1 the screen gave 4.503%.
With CCOC(=O)CN(C)C1CCc2ccccc21 (configuration not stated) the screen gave -10.39%.
With Cc1cc(CN(C)CCN(C)c2ccccc2)no1 the screen gave -7.581%.
With Cc1ccc(C(C)NC(=O)Cc2c(C)nc3cc(=O)[nH]n3c2C)s1 (configuration not stated) the screen gave -6.261%.
With O=C(CCc1cc2n(n1)CCCN(Cc1ccccc1F)C2)NC1CC1 the screen gave -6.248%.
With CSCC(C)NS(=O)(=O)c1ccc(C)c(N(C)C)c1 (configuration not stated) the screen gave -11.69%.
With O=C1CCCc2cc(-c3csc(CCN4CCOC4=O)n3)ccc2N1 the screen gave 11.12%.
With CCOC1CCN(C(=O)c2c(Cl)c3ccccc3n2C)CC1 the screen gave -17.05%.
With COCC(=O)N1CCn2c(CN3CCN(C)CC3)cnc2C1 the screen gave -5.883%.
With CC(Nc1cccc(CN2CCOC2=O)c1)C(=O)Nc1ccccc1F (configuration not stated) the screen gave -1.547%.
With Cc1cc(C(=O)NC2CCc3c(ccc(=O)n3CC3CC3)C2)no1 (configuration not stated) the screen gave -18.22%.
With COCCc1noc(CN2C(=O)OC[C@@H]2C(C)C)n1 the screen gave -14.48%.
With CN(CCc1ccccn1)C(=O)c1cccs1 the screen gave -3.599%.
With CC/C=C(/C)C(=O)NCc1ccnc(OC)c1 the screen gave -6.43%.
With CCN(CCNC(=O)c1cccnc1OCCOC)C1CC1 the screen gave -12.41%.
With CC1CN(C)CCN1C(=O)Nc1nc(-c2cccn2C)cs1 (configuration not stated) the screen gave 6.071%.
With CCN(Cc1ccc(Cl)c(Cl)c1)C(=O)CCn1cncn1 the screen gave -9.917%.
With Cn1nc(C(=O)N2CCOCC2)cc1C(=O)Nc1ccc(Cl)cc1Cl the screen gave -7.06%.
With Nc1nccc(N[C@H]2CN(CC(=O)NC3CCCCC3)C[C@@H]2C2CC2)n1 the screen gave -13.93%.
With Cn1cccc1C(=O)N1CCC(c2nccn2Cc2ccncc2)CC1 the screen gave -7.398%.
With N#CCCCS(=O)(=O)NC(=O)c1ccccc1F the screen gave -5.155%.
With CCn1c(CN2CCCC2)nnc1C1CCN(Cc2ccc(C)o2)CC1 the screen gave 2.978%.
With Cc1ccc(NC(=O)c2cccc(N(C)C)c2)nc1 the screen gave 3.181%.
With CCC(CO)NCc1ccc(-c2ccc(Br)cc2)o1 (configuration not stated) the screen gave 0.4515%.
With O=C(NCCCn1nc2ccccn2c1=O)NCCC1CCC1 the screen gave -10.86%.
With NC(=O)c1cc(C2CCCN(C(=O)CCc3ccccn3)C2)n[nH]1 (configuration not stated) the screen gave -13.79%.
With CC(C)NC(=O)N1CCC2(CC(=O)N(c3cccc(C#N)c3)C2)C1 (configuration not stated) the screen gave -5.143%.

The last 3 entries again:

For O=C(NCCCn1nc2ccccn2c1=O)NCCC1CCC1 the result was -10.86%.
For NC(=O)c1cc(C2CCCN(C(=O)CCc3ccccn3)C2)n[nH]1 (configuration not stated) the result was -13.79%.
For CC(C)NC(=O)N1CCC2(CC(=O)N(c3cccc(C#N)c3)C2)C1 (configuration not stated) the result was -5.143%.

Source: ChEMBL document CHEMBL3988442, “University of Dundee, Small-Polar-MMV Screening Library” (2021).